Measured values: paper PMC8941131
These are yes or no findings as the source states them, for the method shown. Binding seen in cells or lysates may run through a third protein. Some entries that bind do so weakly or less than the wild type. For part of these data: Sequences can lack the tags named with a protein. One block for each molecule: values may come before it.

Sequences of proteins named here, by UniProt entry; tags and fusion partners are left off.
UniProt O00141: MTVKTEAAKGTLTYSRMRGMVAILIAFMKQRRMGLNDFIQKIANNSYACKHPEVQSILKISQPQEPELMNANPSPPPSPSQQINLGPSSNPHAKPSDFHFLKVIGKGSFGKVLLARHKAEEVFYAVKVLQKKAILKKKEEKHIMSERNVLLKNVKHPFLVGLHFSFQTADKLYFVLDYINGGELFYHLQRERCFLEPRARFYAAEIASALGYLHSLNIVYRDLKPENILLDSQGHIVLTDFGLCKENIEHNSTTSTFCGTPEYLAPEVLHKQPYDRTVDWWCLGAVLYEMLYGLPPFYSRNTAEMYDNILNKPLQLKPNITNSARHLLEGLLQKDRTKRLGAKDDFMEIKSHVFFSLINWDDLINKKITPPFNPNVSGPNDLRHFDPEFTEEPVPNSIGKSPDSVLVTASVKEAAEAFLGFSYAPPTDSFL

Legend:
[1] = biological target: T1, Flag-PDK1 (3-phosphoinositide-dependent protein kinase 1, wild type) (UniProt O15530); test: co-IP; immunoprecipitation (anti-Flag or anti-HA agarose, 2-4 h at 4 °C) from whole cell lysates of co-transfected 293T cells; EBC lysis buffer, four washes with NETN buffer, immunoblot; in some panels with HA-S6K1-R3A or knock-down of 14-3-3γ
T1 sequence: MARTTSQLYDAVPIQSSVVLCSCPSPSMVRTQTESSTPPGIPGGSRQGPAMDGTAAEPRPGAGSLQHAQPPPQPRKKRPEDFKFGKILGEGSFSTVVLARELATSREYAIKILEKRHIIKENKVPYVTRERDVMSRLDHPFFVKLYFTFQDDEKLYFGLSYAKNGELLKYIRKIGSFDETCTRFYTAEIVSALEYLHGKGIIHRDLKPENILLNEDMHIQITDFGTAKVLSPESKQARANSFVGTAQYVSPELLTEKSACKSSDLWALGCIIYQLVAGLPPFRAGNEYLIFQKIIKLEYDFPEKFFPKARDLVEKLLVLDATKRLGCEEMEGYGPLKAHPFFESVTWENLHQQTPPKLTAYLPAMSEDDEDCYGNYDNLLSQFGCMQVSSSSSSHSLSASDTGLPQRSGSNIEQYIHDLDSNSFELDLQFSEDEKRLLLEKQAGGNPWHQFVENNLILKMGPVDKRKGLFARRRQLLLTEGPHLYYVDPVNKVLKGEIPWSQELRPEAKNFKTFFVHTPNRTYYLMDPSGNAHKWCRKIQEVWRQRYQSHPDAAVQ

Flag-PDK1-S549A = biological target: T2, Flag-PDK1-S549A (UniProt O15530); test: as above
T2 sequence: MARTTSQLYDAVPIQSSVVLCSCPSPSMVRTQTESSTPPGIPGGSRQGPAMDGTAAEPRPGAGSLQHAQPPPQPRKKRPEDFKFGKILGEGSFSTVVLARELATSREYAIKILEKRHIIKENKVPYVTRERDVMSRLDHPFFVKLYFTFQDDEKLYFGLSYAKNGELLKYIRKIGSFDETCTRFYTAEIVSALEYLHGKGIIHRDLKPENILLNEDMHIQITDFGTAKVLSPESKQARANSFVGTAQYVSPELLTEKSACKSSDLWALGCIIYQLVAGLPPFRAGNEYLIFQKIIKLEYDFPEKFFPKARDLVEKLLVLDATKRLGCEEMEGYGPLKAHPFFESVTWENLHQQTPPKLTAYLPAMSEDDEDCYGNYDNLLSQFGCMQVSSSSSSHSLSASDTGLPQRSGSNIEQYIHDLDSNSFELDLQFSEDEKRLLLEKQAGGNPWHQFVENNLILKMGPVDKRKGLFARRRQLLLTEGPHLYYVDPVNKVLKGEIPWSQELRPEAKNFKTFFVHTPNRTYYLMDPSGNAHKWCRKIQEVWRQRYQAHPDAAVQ

Flag-PDK1-S549D = biological target: T3, Flag-PDK1-S549D (UniProt O15530); test: as above
T3 sequence: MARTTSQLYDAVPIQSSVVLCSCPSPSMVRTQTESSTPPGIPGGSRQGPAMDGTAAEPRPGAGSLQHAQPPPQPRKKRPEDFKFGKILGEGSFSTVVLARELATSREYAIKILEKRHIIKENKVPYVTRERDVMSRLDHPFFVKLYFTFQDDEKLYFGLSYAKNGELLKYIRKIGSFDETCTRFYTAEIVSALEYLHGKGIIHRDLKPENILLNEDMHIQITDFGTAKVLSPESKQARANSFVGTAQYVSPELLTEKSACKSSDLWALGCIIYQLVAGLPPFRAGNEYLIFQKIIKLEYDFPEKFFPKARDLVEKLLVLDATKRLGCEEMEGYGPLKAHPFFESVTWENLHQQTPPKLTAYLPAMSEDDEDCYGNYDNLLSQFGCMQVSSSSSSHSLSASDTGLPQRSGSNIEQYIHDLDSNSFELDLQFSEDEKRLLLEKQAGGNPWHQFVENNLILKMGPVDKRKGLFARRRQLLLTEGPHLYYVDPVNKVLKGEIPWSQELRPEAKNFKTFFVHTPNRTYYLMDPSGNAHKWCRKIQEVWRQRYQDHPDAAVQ

GST-14-3-3γ = biological target: T4, GST-14-3-3γ (UniProt P61981); test: pull-down; GST pull-down (glutathione beads, 2-4 h at 4 °C) from whole cell lysates of co-transfected 293T cells; EBC lysis buffer, four washes with NETN buffer, immunoblot; in Fig. 3b with increasing doses of HA-S6K1-R3A; in Fig. 4k control (scramble) cells
T4 sequence: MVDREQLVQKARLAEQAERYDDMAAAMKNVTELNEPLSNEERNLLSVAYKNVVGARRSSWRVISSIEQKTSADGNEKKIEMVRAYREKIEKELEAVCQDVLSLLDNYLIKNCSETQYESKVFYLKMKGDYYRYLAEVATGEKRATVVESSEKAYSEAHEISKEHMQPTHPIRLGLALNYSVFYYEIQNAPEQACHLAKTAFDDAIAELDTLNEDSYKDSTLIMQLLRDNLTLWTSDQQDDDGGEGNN

HA-14-3-3γ = biological target: T5, HA-14-3-3γ (UniProt P61981); test: co-IP; immunoprecipitation (anti-Flag or anti-HA agarose, 2-4 h at 4 °C) from whole cell lysates of co-transfected 293T cells; EBC lysis buffer, four washes with NETN buffer, immunoblot; in some panels with HA-S6K1-R3A or knock-down of 14-3-3γ
T5 sequence: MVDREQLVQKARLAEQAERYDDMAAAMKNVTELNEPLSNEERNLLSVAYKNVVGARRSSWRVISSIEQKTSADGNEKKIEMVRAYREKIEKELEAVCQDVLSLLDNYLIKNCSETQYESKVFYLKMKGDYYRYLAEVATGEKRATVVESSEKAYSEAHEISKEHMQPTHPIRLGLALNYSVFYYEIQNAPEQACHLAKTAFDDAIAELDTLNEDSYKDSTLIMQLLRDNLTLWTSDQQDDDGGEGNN

GST-PDK1 = biological target: T6, GST-PDK1 (UniProt O15530); test: pull-down; GST pull-down from lysates of 14-3-3γ knockdown 293T cells transfected with GST-PDK1 and Flag-PDK1
T6 sequence: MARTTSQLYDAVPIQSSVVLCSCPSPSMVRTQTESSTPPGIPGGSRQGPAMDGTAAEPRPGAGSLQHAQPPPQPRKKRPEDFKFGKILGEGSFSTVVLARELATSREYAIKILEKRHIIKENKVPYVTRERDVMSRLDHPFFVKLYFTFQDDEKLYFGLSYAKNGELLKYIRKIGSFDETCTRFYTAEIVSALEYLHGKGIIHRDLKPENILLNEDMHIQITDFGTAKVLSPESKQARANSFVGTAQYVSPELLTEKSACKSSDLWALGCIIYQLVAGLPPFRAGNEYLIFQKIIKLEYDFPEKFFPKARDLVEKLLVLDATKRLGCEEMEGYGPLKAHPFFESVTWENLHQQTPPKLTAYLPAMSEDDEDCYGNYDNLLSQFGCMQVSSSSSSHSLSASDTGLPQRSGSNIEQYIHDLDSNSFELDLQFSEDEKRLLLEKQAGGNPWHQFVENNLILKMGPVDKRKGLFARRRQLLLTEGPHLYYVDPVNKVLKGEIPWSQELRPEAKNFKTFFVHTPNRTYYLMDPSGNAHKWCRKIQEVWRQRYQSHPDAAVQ

GST-PDK1, O15530 = biological target: T7, GST-PDK1, O15530; test: pull-down; GST pull-down (glutathione beads, 2-4 h at 4 °C) from whole cell lysates of co-transfected 293T cells; EBC lysis buffer, four washes with NETN buffer, immunoblot; in Fig. 3b with increasing doses of HA-S6K1-R3A; in Fig. 4k control (scramble) cells; conditions: remark: other sources report otherwise
T7 chain: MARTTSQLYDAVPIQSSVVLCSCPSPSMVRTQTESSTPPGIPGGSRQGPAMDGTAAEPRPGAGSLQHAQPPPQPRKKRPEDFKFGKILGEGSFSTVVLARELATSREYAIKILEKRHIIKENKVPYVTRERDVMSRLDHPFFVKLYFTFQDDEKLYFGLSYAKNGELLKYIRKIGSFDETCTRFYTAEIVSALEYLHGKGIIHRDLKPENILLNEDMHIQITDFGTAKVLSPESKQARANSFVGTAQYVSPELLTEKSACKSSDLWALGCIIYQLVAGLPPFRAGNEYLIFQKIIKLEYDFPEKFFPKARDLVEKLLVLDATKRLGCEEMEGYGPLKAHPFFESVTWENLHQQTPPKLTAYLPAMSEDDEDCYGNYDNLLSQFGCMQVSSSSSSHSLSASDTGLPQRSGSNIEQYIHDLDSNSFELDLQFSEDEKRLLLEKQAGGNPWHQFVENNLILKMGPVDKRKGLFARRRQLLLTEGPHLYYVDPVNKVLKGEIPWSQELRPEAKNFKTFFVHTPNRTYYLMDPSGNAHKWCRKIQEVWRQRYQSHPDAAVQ

[2] = biological target: T8, endogenous 14-3-3γ (DLD1 cells) (human (endogenous in DLD1)) (UniProt P61981); test: co-IP; DLD1 cell lysates, IP with control IgG, anti-PDK1 or 14-3-3γ antibodies, immunoblot; endogenous proteins; in Fig. 1g cells infected with shRNA against S6K1
T8 sequence: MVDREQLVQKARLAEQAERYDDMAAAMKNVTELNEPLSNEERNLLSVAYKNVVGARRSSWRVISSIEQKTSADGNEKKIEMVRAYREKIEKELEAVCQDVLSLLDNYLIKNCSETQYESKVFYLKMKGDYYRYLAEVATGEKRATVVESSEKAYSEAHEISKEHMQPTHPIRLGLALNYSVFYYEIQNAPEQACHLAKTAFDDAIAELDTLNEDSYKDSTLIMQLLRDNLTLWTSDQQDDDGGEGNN

binding [1]: binds
binding (Flag-PDK1-S549A): binds
binding (Flag-PDK1-S549D): binds
Molecule: HA-SGK1 (from UniProt O00141 1-431) (enzyme)

binding (GST-14-3-3γ): binds
binding (HA-14-3-3γ): binds
B1: Flag-PDK1 (3-phosphoinositide-dependent protein kinase 1, wild type) (enzyme, UniProt O15530 1-556)
chain: MARTTSQLYDAVPIQSSVVLCSCPSPSMVRTQTESSTPPGIPGGSRQGPAMDGTAAEPRPGAGSLQHAQPPPQPRKKRPEDFKFGKILGEGSFSTVVLARELATSREYAIKILEKRHIIKENKVPYVTRERDVMSRLDHPFFVKLYFTFQDDEKLYFGLSYAKNGELLKYIRKIGSFDETCTRFYTAEIVSALEYLHGKGIIHRDLKPENILLNEDMHIQITDFGTAKVLSPESKQARANSFVGTAQYVSPELLTEKSACKSSDLWALGCIIYQLVAGLPPFRAGNEYLIFQKIIKLEYDFPEKFFPKARDLVEKLLVLDATKRLGCEEMEGYGPLKAHPFFESVTWENLHQQTPPKLTAYLPAMSEDDEDCYGNYDNLLSQFGCMQVSSSSSSHSLSASDTGLPQRSGSNIEQYIHDLDSNSFELDLQFSEDEKRLLLEKQAGGNPWHQFVENNLILKMGPVDKRKGLFARRRQLLLTEGPHLYYVDPVNKVLKGEIPWSQELRPEAKNFKTFFVHTPNRTYYLMDPSGNAHKWCRKIQEVWRQRYQSHPDAAVQ
binding (GST-PDK1): no binding (condition: in 14-3-3γ knockdown cells)

binding (HA-14-3-3γ): binds
B2: Flag-PDK1-S549D (enzyme, UniProt O15530 1-556)
chain: MARTTSQLYDAVPIQSSVVLCSCPSPSMVRTQTESSTPPGIPGGSRQGPAMDGTAAEPRPGAGSLQHAQPPPQPRKKRPEDFKFGKILGEGSFSTVVLARELATSREYAIKILEKRHIIKENKVPYVTRERDVMSRLDHPFFVKLYFTFQDDEKLYFGLSYAKNGELLKYIRKIGSFDETCTRFYTAEIVSALEYLHGKGIIHRDLKPENILLNEDMHIQITDFGTAKVLSPESKQARANSFVGTAQYVSPELLTEKSACKSSDLWALGCIIYQLVAGLPPFRAGNEYLIFQKIIKLEYDFPEKFFPKARDLVEKLLVLDATKRLGCEEMEGYGPLKAHPFFESVTWENLHQQTPPKLTAYLPAMSEDDEDCYGNYDNLLSQFGCMQVSSSSSSHSLSASDTGLPQRSGSNIEQYIHDLDSNSFELDLQFSEDEKRLLLEKQAGGNPWHQFVENNLILKMGPVDKRKGLFARRRQLLLTEGPHLYYVDPVNKVLKGEIPWSQELRPEAKNFKTFFVHTPNRTYYLMDPSGNAHKWCRKIQEVWRQRYQDHPDAAVQ

binding (GST-PDK1, O15530): binds
B3: Flag-PDK1 (3-phosphoinositide-dependent protein kinase 1, wild type), O15530 1-556 (enzyme)
chain: MARTTSQLYDAVPIQSSVVLCSCPSPSMVRTQTESSTPPGIPGGSRQGPAMDGTAAEPRPGAGSLQHAQPPPQPRKKRPEDFKFGKILGEGSFSTVVLARELATSREYAIKILEKRHIIKENKVPYVTRERDVMSRLDHPFFVKLYFTFQDDEKLYFGLSYAKNGELLKYIRKIGSFDETCTRFYTAEIVSALEYLHGKGIIHRDLKPENILLNEDMHIQITDFGTAKVLSPESKQARANSFVGTAQYVSPELLTEKSACKSSDLWALGCIIYQLVAGLPPFRAGNEYLIFQKIIKLEYDFPEKFFPKARDLVEKLLVLDATKRLGCEEMEGYGPLKAHPFFESVTWENLHQQTPPKLTAYLPAMSEDDEDCYGNYDNLLSQFGCMQVSSSSSSHSLSASDTGLPQRSGSNIEQYIHDLDSNSFELDLQFSEDEKRLLLEKQAGGNPWHQFVENNLILKMGPVDKRKGLFARRRQLLLTEGPHLYYVDPVNKVLKGEIPWSQELRPEAKNFKTFFVHTPNRTYYLMDPSGNAHKWCRKIQEVWRQRYQSHPDAAVQ

binding [2]: binds
B4: endogenous PDK1 (DLD1 cells) (enzyme, UniProt O15530 1-556)
chain: MARTTSQLYDAVPIQSSVVLCSCPSPSMVRTQTESSTPPGIPGGSRQGPAMDGTAAEPRPGAGSLQHAQPPPQPRKKRPEDFKFGKILGEGSFSTVVLARELATSREYAIKILEKRHIIKENKVPYVTRERDVMSRLDHPFFVKLYFTFQDDEKLYFGLSYAKNGELLKYIRKIGSFDETCTRFYTAEIVSALEYLHGKGIIHRDLKPENILLNEDMHIQITDFGTAKVLSPESKQARANSFVGTAQYVSPELLTEKSACKSSDLWALGCIIYQLVAGLPPFRAGNEYLIFQKIIKLEYDFPEKFFPKARDLVEKLLVLDATKRLGCEEMEGYGPLKAHPFFESVTWENLHQQTPPKLTAYLPAMSEDDEDCYGNYDNLLSQFGCMQVSSSSSSHSLSASDTGLPQRSGSNIEQYIHDLDSNSFELDLQFSEDEKRLLLEKQAGGNPWHQFVENNLILKMGPVDKRKGLFARRRQLLLTEGPHLYYVDPVNKVLKGEIPWSQELRPEAKNFKTFFVHTPNRTYYLMDPSGNAHKWCRKIQEVWRQRYQSHPDAAVQ
